The other results are listed elsewhere or left out. Small differences around the control level are noise.
Compound: CN[C@@H]1C[C@H]2O[C@@](C)([C@@H]1OC)n1c3ccccc3c3c4c(c5c6ccccc6n2c5c31)C(=O)NC4 [staurosporine]
Assay: log2 fold change of tryptic peptide abundance, ligand vs vehicle (limited proteolysis) (log2 ratio); higher = more trypsin-susceptible (destabilized)
Conditions: ligand concentration: 20 uM; sample: mouse liver crude lysate; replicate design: treated separately

The chains behind the UniProt entries cited, without tags or fusion partners. Where a name states a change or a piece, a line headed by the entry shows the natural chain unless it says otherwise.
UniProt Q6NZQ6: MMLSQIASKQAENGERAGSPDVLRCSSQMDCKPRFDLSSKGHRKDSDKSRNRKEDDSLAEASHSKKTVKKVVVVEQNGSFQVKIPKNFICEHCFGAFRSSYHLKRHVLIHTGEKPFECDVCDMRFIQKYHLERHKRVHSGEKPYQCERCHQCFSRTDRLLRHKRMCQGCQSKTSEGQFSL
UniProt Q6Q783: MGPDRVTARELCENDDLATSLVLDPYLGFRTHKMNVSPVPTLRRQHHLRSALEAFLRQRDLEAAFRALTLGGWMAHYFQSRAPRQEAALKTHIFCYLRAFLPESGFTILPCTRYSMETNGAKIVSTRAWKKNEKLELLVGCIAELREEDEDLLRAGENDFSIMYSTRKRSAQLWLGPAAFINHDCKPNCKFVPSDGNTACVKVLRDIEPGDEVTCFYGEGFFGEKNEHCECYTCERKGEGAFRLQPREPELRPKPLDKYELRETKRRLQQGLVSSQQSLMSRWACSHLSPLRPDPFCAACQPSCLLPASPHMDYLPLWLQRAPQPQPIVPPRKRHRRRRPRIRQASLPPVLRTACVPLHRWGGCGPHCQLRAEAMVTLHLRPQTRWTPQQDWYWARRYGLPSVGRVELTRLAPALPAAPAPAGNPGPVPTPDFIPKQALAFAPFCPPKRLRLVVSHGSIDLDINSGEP
UniProt Q6NXW6: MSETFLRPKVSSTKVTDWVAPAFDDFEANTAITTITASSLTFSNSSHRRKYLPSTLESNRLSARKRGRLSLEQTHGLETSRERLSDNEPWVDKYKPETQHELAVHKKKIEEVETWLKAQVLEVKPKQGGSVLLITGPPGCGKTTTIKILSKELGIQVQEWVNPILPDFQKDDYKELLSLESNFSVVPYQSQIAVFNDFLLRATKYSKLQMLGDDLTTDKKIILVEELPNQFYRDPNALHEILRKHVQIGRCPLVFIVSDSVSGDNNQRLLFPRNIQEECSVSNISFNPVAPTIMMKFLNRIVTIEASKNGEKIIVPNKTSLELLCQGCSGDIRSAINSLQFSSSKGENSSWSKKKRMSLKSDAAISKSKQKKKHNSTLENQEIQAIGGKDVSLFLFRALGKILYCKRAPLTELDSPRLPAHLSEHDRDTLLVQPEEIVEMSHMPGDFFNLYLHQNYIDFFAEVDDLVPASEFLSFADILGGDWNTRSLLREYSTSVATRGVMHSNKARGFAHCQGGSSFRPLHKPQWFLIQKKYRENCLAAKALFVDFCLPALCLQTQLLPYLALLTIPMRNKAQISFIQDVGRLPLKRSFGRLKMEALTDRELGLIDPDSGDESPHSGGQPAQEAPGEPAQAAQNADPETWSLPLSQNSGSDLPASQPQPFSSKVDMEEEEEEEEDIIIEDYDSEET
UniProt Q6SJQ0: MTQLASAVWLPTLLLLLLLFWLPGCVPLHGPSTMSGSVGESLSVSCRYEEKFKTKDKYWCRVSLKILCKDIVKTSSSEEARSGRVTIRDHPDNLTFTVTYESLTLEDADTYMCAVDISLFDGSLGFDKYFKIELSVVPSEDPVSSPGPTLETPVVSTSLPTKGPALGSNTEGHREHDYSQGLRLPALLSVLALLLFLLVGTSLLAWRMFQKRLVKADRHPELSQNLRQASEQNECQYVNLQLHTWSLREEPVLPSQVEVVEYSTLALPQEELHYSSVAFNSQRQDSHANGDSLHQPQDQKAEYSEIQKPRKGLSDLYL
UniProt Q6KAR6: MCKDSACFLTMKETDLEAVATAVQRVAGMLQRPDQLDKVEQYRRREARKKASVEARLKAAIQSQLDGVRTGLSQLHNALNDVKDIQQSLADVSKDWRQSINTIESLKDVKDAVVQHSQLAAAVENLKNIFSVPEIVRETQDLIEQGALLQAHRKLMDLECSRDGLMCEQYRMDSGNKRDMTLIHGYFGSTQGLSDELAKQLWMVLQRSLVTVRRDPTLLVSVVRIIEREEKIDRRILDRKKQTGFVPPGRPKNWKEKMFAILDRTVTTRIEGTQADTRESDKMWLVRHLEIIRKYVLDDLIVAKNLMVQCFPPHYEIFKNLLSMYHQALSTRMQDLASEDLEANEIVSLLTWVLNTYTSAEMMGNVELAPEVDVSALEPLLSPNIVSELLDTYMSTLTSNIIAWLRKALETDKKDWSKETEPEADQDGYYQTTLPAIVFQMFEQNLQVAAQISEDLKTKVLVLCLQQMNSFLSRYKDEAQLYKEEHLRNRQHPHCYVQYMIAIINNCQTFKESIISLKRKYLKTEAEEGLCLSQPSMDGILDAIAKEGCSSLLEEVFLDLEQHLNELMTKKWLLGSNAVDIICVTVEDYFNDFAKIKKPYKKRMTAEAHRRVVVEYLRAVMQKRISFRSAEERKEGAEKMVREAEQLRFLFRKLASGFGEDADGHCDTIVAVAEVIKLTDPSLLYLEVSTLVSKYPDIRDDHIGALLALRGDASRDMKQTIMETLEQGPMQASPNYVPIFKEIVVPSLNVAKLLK
UniProt Q6P1H1: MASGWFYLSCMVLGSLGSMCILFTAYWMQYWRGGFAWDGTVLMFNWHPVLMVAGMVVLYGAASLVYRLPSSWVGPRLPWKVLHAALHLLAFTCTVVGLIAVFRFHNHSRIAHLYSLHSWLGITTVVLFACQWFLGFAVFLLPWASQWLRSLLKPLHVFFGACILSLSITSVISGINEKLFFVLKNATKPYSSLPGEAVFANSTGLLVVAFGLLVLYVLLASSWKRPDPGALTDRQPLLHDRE
UniProt Q6PDE7: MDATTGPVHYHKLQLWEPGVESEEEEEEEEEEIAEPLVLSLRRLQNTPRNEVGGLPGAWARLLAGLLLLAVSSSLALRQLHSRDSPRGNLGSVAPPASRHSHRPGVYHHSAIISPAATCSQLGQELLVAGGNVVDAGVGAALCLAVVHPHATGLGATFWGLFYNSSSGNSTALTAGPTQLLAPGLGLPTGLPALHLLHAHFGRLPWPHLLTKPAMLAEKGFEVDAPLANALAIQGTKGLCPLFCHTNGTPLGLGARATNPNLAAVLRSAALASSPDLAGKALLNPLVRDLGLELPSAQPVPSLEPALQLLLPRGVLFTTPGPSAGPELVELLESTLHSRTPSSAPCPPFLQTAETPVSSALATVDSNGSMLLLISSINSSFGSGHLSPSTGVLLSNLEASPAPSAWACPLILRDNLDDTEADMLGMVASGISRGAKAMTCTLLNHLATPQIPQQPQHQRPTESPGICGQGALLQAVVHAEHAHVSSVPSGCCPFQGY
UniProt Q6PDZ2: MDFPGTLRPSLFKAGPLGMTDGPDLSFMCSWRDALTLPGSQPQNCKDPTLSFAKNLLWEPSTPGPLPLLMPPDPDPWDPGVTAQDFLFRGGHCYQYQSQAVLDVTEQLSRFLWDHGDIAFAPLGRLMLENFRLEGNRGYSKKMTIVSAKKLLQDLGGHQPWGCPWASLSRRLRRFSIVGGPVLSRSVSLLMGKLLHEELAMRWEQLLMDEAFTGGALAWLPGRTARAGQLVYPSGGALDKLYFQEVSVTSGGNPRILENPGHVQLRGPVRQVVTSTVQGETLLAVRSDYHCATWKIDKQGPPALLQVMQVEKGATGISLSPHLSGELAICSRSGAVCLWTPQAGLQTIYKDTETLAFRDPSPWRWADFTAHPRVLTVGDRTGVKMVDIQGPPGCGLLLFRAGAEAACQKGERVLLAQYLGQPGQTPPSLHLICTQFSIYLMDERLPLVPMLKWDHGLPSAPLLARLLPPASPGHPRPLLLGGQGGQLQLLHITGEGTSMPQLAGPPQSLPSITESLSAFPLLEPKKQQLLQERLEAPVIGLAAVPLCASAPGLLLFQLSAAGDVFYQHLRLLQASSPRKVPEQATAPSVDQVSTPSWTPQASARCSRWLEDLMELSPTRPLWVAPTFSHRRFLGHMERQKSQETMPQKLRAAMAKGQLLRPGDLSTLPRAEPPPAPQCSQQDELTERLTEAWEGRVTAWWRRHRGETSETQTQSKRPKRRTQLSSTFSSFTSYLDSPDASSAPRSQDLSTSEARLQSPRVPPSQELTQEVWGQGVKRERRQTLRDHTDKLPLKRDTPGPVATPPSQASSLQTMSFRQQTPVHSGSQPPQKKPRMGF
UniProt Q6TYB5: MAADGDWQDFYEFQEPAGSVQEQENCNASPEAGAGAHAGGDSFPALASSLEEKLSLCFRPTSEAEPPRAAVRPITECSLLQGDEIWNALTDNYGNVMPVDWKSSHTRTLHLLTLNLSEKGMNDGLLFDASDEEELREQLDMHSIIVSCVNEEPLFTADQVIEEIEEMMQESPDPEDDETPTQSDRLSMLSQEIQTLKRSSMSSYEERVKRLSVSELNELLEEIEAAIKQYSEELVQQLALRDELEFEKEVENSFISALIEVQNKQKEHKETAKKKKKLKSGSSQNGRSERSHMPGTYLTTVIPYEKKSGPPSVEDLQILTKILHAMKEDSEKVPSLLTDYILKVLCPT
UniProt Q6PGF7: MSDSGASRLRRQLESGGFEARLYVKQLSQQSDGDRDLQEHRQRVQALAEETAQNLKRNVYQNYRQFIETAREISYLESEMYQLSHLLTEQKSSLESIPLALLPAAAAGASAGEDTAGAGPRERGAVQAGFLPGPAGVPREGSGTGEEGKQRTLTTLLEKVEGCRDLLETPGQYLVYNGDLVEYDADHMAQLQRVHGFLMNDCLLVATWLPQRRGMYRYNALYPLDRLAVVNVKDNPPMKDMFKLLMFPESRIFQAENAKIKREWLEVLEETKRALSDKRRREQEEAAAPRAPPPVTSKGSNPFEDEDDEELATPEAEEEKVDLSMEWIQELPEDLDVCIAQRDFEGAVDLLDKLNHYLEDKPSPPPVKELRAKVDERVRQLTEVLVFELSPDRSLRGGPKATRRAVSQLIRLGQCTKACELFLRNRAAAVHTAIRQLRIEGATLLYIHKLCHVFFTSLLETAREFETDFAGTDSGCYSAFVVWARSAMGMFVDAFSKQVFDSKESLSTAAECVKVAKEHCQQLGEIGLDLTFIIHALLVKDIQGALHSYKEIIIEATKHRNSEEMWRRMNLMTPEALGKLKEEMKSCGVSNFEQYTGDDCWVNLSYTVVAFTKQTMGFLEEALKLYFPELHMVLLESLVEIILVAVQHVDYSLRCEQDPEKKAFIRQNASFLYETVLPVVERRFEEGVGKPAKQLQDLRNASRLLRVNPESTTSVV
UniProt Q6NVE8: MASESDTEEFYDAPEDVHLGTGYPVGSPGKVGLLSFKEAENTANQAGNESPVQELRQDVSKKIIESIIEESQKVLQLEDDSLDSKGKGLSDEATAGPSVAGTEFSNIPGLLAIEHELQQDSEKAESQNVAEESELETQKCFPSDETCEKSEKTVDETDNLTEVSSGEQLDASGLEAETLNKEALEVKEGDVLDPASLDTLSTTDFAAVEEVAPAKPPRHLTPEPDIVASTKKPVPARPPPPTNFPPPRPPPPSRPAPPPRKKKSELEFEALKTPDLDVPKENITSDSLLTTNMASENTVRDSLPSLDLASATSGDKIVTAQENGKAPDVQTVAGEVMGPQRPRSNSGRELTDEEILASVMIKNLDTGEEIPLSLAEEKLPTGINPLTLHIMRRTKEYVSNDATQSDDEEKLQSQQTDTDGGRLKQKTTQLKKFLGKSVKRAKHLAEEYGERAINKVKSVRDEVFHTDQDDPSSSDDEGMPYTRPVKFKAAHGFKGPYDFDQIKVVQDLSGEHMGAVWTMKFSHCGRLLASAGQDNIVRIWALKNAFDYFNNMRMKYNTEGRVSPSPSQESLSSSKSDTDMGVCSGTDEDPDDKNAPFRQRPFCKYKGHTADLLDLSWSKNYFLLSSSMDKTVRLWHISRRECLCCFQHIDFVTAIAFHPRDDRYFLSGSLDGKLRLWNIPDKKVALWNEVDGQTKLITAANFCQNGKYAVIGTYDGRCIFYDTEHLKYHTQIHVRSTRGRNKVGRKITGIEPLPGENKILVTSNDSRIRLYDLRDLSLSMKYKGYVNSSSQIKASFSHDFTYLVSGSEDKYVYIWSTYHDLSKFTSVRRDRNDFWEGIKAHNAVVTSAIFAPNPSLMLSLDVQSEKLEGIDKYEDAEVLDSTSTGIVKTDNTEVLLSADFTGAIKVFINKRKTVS
UniProt Q6PAQ4: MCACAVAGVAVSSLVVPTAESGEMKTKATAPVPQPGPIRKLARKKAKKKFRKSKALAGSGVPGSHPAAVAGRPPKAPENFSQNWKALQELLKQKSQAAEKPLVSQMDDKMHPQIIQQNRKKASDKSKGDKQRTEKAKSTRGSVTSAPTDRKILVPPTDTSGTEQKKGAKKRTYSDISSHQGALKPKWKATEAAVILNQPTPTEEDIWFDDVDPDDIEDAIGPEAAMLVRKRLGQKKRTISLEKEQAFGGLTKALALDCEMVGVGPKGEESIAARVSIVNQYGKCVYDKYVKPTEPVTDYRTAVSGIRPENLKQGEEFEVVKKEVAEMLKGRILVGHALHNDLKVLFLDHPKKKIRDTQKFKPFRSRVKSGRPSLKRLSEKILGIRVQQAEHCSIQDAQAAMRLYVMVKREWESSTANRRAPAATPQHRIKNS

**Q.** For “UniProt Q6NZQ6 (peptide sequence: EDDSLAEASHSKK, peptide start residue: 54)”, which log2 fold change is on record?
**A.** -0.415

**Q.** How did the log2 fold change turn out when “UniProt Q6Q783 (peptide sequence: MNVSPVPTLR, peptide start residue: 34)” was run?
**A.** -0.104

**Q.** “UniProt Q6NXW6 (peptide sequence: KIEEVETWLK, peptide start residue: 108)” was tested. Which log2 fold change did it give?
**A.** -0.47

**Q.** With “UniProt Q6SJQ0 (peptide sequence: AEYSEIQKPR, peptide start residue: 301)” as the target, how does the log2 fold change read?
**A.** 0.0712

**Q.** With “UniProt Q6KAR6 (peptide sequence: NLLSMYHQALSTR, peptide start residue: 320)” as the target, how does the log2 fold change read?
**A.** 0.22

**Q.** How did the log2 fold change turn out when “UniProt Q6NZC7 (peptide sequence: SAWQTLNEFAR, peptide start residue: 878)” was run?
**A.** -0.192

**Q.** Which log2 fold change does the source give for “UniProt Q69ZR9 (peptide sequence: SIYDPLSVK, peptide start residue: 245)” here?
**A.** -0.564

**Q.** How did the log2 fold change turn out when “UniProt Q6P1H1 (peptide sequence: RPDPGALTDR, peptide start residue: 225)” was run?
**A.** 0.0189

**Q.** Which log2 fold change does the source give for “UniProt Q6PDE7 (peptide sequence: GNLGSVAPPASR, peptide start residue: 88)” here?
**A.** -0.0775

**Q.** Which log2 fold change does the source give for “UniProt Q6PDZ2 (peptide sequence: RFLGHMER, peptide start residue: 631)” here?
**A.** 0.386

**Q.** With “UniProt Q6TYB5 (peptide sequence: LSMLSQEIQTLKR, peptide start residue: 186)” as the target, how does the log2 fold change read?
**A.** 0.139

**Q.** How did the log2 fold change turn out when “UniProt Q6PGF7 (peptide sequence: NSEEMWR, peptide start residue: 561)” was run?
**A.** -0.35

**Q.** “UniProt Q6NVE8 (peptide sequence: IIESIIEESQK, peptide start residue: 63)” was tested. Which log2 fold change did it give?
**A.** -0.0993

**Q.** With “UniProt Q6PAQ4 (peptide sequence: TYSDISSHQGALKPK, peptide start residue: 172)” as the target, how does the log2 fold change read?
**A.** -0.213

— the supplement of paper PMC12819154, “High-throughput peptide-centric local stability assay extends protein–ligand identification to membrane proteins, tissues and bacteria” (Nature Structural & Molecular Biology, 2025)
